Experimental data from patent publication US20150017171A1.
Results are given in words; binding and its absence hold for the method and conditions named. Some binding calls cover weakened binding; strength is not graded here. For some assays here: Where a sequence is shown, tags or fusion partners need not be part of it.

By UniProt entry, the sequences of proteins in these tests, tags left out. Where a name states a change or a piece, a line headed by the entry shows the natural chain unless it says otherwise.
UniProt Q9BX97: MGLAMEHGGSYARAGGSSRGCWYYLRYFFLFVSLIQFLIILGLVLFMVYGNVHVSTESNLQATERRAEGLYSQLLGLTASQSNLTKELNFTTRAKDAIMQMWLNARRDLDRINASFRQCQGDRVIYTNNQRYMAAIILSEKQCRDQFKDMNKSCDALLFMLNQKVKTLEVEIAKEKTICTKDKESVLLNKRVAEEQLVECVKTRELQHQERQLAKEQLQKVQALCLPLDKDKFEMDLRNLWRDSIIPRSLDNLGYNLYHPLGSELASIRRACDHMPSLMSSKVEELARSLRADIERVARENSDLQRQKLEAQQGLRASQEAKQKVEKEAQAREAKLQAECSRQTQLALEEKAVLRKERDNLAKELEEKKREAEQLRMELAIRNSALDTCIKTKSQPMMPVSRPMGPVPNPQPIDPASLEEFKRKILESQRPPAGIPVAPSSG

Legend:
[1] = molecular target: T1, His-tagged human PLVAP51-442 recombinant fusion protein (human) (UniProt Q9BX97); experiment: immunoblot of E. coli total protein extract
T1 sequence: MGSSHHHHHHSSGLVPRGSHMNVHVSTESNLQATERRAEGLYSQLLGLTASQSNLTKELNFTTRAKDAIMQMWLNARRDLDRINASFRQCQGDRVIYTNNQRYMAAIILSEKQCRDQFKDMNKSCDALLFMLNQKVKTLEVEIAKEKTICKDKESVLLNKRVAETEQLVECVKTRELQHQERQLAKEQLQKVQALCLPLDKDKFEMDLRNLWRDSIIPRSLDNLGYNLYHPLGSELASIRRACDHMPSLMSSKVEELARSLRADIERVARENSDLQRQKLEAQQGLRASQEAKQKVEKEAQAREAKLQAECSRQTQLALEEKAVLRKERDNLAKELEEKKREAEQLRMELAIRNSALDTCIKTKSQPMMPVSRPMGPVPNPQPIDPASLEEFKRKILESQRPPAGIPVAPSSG

[2] = molecular target: T2, rhesus monkey PLVAP (rhesus monkey) (UniProt H9Z0S1); experiment: immunohistochemistry, rhesus monkey kidney section (FIG. 27P)
T2 sequence: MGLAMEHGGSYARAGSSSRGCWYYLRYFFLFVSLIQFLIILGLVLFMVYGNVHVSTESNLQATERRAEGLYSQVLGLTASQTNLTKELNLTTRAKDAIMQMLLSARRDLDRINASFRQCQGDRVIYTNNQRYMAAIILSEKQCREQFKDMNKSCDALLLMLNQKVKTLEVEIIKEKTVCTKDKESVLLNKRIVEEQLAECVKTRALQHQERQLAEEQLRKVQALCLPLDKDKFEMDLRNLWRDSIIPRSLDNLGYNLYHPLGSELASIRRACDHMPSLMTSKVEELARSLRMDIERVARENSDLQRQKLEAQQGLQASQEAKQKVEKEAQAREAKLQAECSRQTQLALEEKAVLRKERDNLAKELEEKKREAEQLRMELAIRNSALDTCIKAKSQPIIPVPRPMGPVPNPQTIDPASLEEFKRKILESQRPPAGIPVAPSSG

[3] = molecular target: cynomolgus monkey PLVAP (cynomolgus monkey); experiment: immunohistochemistry, cynomolgus monkey kidney section (FIG. 27O)
[4] = molecular target: cynomolgus monkey PLVAP (cynomolgus monkey); experiment: immunohistochemistry on arrays of formalin-fixed normal tissues
[5] = molecular target: T2, rhesus monkey PLVAP (rhesus monkey); experiment: as above
[6] = molecular target: T1, His-tagged human PLVAP51-442 recombinant fusion protein (human); experiment: immunoblot of total protein extract of E. coli expressing the His-tagged protein
[7] = molecular target: T2, rhesus monkey PLVAP (rhesus monkey); experiment: immunohistochemistry on formalin-fixed normal rhesus monkey tissue [D00034 FIG. 27P]
[8] = molecular target: cynomolgus monkey PLVAP (cynomolgus monkey); experiment: immunohistochemistry on formalin-fixed normal cynomolgus monkey tissue [D00034 FIG. 27O]

Measured: binding

B1: KFCC-GY5 monoclonal antibody (murine, hybridoma ATCC PTA-9964) (antibody, mouse IgG1, V domains shown)
VH: QVQLQQPGAELVRPGASVKLSCKASGYTFTSNYINWVKQRPGQGLEWIGNIYPSDGFTNYNQKFKDRATLTVDKSSSTAYMQLSSPTSEDSAVYYCTRNFDVWGAGTTVTVSS
VL: DVVMTQTPLSLPVSLGDQASISCRSSQSLVHSNGNTYLQWYLQKPGQSPKLLIYTVSNRFSGVPDRFSGSGSGPDFTLKISRVEAEDLGVYFCSQSTHVPFTFGSGTKLEIK
binds: all assays above
